Measurements taken from PubChem BioAssay AID1259415 (National Center for Advancing Translational Sciences (NCATS), 2018).
The campaign covered roughly 410,000 compounds. About 18,000 (4.4%) were called active. The shares of active, inactive and inconclusive entries below differ from those in the screen. Cut-off read from the data, not from the text of the source: active = activity change below about -60%; inconclusive = no clear call, values can overlap the other calls; inactive = above about -39%.

Experiment: qHTS Assay for inhibitors of the human cytomegalovirus (HCMV)
Conditions: HFF cells, HCMV-luciferase reporter, 72 h; at 57.5 µM; active compounds read low
Procedure, shortened: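 Cell-based, HFFs, 1000 cells/well, 16 h 37C; cpds in DMSO + HCMV-luc, MOI 1 PFU/cell; 72 h 37C; OneGlo luminescence after 5 min RT; norm. to buffer vs Salinomycin 10uM.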
% is set by controls: 0 for no effect and ±100 for the full control effect.

| SMILES | activity change, negative = inhibition |
| --- | --- |
| CCc1ccc(NC(=O)C2CCN(c3ncnc4c3nc3n4CCCCC3)CC2)cc1 | active: -72.6% |
| CN(C)CCNc1ncnc2oc(-c3ccccc3)c(-c3ccccc3)c12 | inconclusive: -46.9% |
| Cc1ccc(NC(=O)COC(=O)CNC(=O)c2cccs2)cc1S(=O)(=O)N1CCOCC1 | inactive: -36.4% |
| O=C(O)c1ccc(N=C2c3ccccc3-c3ccccc32)cc1 | inactive: 1.15% |
| Cc1cccc(C)c1-n1nnnc1C1(Nc2ccccc2)CCCCC1 | inconclusive: -42.6% |
| CSc1nnc(C)c(/C=C/NOCc2cccc(F)c2)n1 | inconclusive: -44.3% |
| NC(=O)CC(NC(=O)Cc1ccc(Br)cc1)c1ccc(N2CCCCCCC2)c([N+](=O)[O-])c1 (stereo not given) | inconclusive: -55.2% |
| O=C(NC(=S)N1CCCCC1)c1csc([N+](=O)[O-])c1 | inconclusive: -46% |
| Cc1cccc(C)c1OCC(=O)OC/C(O)=C(\C#N)c1nc2ccccc2[nH]1 | inconclusive: -57.7% |
| O=C(CN1C(=O)COc2ccccc21)NCCC1=CCCCC1 | inconclusive: -43.5% |
| COc1ccc(-c2cc(C(=O)N3CC(C)CC(C)C3)c3ccccc3n2)cc1 (stereo not given) | inactive: 6.11% |
| Nc1ccc(CCN2CCN(c3cccc(C(F)(F)F)c3)CC2)cc1 | inconclusive: -55.3% |
| CC(Cc1ccccc1)C(=O)Nc1ccc(Br)cc1 (stereo not given) | inactive: 20.8% |
| C=CCn1c(=O)[nH]c2cc(C(=O)N3CCN(c4ccc(C(C)=O)cc4)CC3)ccc2c1=O | inactive: 13% |
| Cc1ccc(O)c(-c2cc(-c3ccccc3[N+](=O)[O-])[nH]n2)c1 | inactive: -2.95% |
| O=C(Nc1ccc(F)cc1)c1ccccc1NS(=O)(=O)N1CCCC1 | inconclusive: -58.4% |
| Cc1nc2nc[nH]n2c(=O)c1NS(C)(=O)=O | inactive: 14.8% |
| CCC(C)(C)n1nnnc1C(c1cc2ccc(OC)cc2[nH]c1=O)N1CCc2ccccc2C1 (stereo not given) | active: -75.2% |
| COc1ccc2[nH]c3c(c2c1)CCN1C(=O)C(CC(=O)NCCC2=CCCCC2)C[C@H](C(=O)N2CCOCC2)[C@@]31C (stereo not given in full) | inactive: -2.3% |
| O=C(NCCc1ccc(F)cc1)c1ccc2nccnc2c1 | inactive: 104% |
| COCCN(C(=O)CC1C(=O)NCCN1Cc1ccc(-c2ccccc2)cc1)C(C)C (stereo not given) | inactive: -22.9% |
| C[C@H]1c2cccc(O)c2C(=O)C2C(=O)C3(O)C(=O)C(C(N)=O)C(=O)[C@@H](N(C)C)[C@@H]3[C@@H](O)[C@@H]21 (stereo not given in full) | inconclusive: -40.4% |

Reformatted: entries from further up.
Cc1ccc(NC(=O)COC(=O)CNC(=O)c2cccs2)cc1S(=O)(=O)N1CCOCC1
  activity change, negative = inhibition: inactive: -36.4%
O=C(O)c1ccc(N=C2c3ccccc3-c3ccccc32)cc1
  activity change, negative = inhibition: inactive: 1.15%
Cc1cccc(C)c1-n1nnnc1C1(Nc2ccccc2)CCCCC1
  activity change, negative = inhibition: inconclusive: -42.6%

(further entries)

| SMILES | activity change, negative = inhibition |
| --- | --- |
| O=[N+]([O-])c1cccc(CON=Cc2cc(Cl)ccc2O)c1 | inconclusive: -59.2% |
| O=S(=O)(c1ccccc1)c1cnn(-c2ccccc2)c1-c1ccc(Cl)cc1 | inconclusive: -54.2% |
| O=C(c1ccc(Cl)cc1)c1cc([N+](=O)[O-])ccc1N1CCOCC1 | inconclusive: -55.5% |
| Brc1ccc(-c2ccc(/C=N/Nc3nc(N4CCOCC4)nc(N4CCOCC4)n3)o2)cc1 | inconclusive: -48.4% |
| COc1ccc(-c2nnn(CC(=O)N3CCN(c4ccc(F)cc4)CC3)n2)cc1 | inconclusive: -48.5% |
| Cc1ccc(NC(=O)C2CCN(S(=O)(=O)c3c(C)nn(C)c3C)CC2)c(Cl)c1 | inconclusive: -47.7% |
| Cc1nnc(N2C(=O)C(O)=C(C(=O)c3ccco3)C2c2ccc(C(C)C)cc2)s1 (stereo not given) | inconclusive: -40.4% |
| CC(=O)c1cccc(NC(=O)COC(=O)c2ccc3c(c2)OCO3)c1 | inactive: 3.27% |
| COc1ccc2nc(C)c3c(c2c1)OC(C(C)(Cl)Br)C3 (stereo not given) | inconclusive: -40.6% |
| S=C1CCC(c2ccc(Br)cc2)=NN1c1ccccc1 | inconclusive: -43.1% |
| Cc1ccc(C)c(NC(=O)CN(C)C(=O)c2cccc(S(=O)(=O)N3CCCC3)c2)c1 | inactive: -17.4% |
| CC(=O)C(c1ccccc1)C(c1ccccc1)C(C)[N+](=O)[O-] (stereo not given) | inactive: 35.3% |
| COCCn1c(-c2cc(OC)c(OC)c(OC)c2)nc2oc3ccccc3c(=O)c2c1=O | active: -64.7% |
| Cc1ccc(CN(CC(=O)N/N=C/c2ccco2)S(=O)(=O)c2ccc(C)cc2)cc1 | inactive: -28.7% |
| Nc1nc(NCc2ccco2)nc(Nc2ccc(F)cc2)c1[N+](=O)[O-] | inconclusive: -40.2% |
| COc1ccc2oc3ccccc3c(=O)c2c1 | inactive: 3.89% |
| COc1ccc(N/C=C2\C(=O)CCc3c2oc2cc(Cl)c(O)c(Cl)c32)cc1 | active: -61.9% |
| Cc1ccc(C2=NN(C(=O)CCCC(=O)O)C(c3ccco3)C2)cc1 (stereo not given) | inconclusive: -40.7% |
| Cc1cc(N(C)Cc2ccccc2)n2nc(-c3ccc(C(C)(C)C)cc3)nc2n1 | inconclusive: -43.1% |
| CCOC(=O)c1c(-c2ccc(C)s2)csc1N | inconclusive: -51% |
| Cc1ccc(SCC(=O)N(C)C2CCS(=O)(=O)C2)cc1 (stereo not given) | inconclusive: -40.3% |
| Cc1ccc(NC2CCCN(C(=O)c3cn4cccc(C)c4n3)C2)cc1C (stereo not given) | inconclusive: -41.7% |

| SMILES | activity change, negative = inhibition |
| --- | --- |
| Cc1ccc(S(=O)(=O)N2CCCCC2)cc1NC(=O)COC(=O)Cc1cccc(C(F)(F)F)c1 | inconclusive: -44.8% |
| Cc1ncc([N+](=O)[O-])n1CCOC(=O)c1ccc(Br)cc1 | inconclusive: -44.3% |
| CCN(CC)CCCNC(=S)N1CCN(c2nc3ccccc3n2CC)CC1 | inactive: -16% |
| CN(C(=O)C(=O)c1cn(CC(=O)N2CCCC2)c2ccccc12)C1CCCCC1 | inactive: -25.4% |
| CC1CCCCN1C(=O)c1ccc2c(c1)N(Cc1cccc(Cl)c1)C(=O)c1ccccc1S2=O (stereo not given) | active: -67.9% |
| CC1(C(=O)N/N=C/c2c(F)c(F)c(F)c(F)c2F)CC1(Cl)Cl (stereo not given) | inconclusive: -57.3% |
| O=S(=O)([N-]c1nc2ccccc2nc1-[n+]1ccccc1)c1ccc(Cl)cc1 | active: -62.2% |
| OC[C@@H]1CN(Cc2ccc(-c3ccccc3)cc2)C[C@H](n2cnc3c(N4CCOCC4)ncnc32)O1 | inconclusive: -48.6% |
| Cc1ccc(-c2noc(C3CCCN(C(=O)c4c(F)cccc4F)C3)n2)cc1 (stereo not given) | inconclusive: -44.9% |
| Oc1ccc(-c2onc(C(F)(F)F)c2-c2cscn2)c(O)c1 | inconclusive: -51.3% |
| O=C(CC1CCC1)Nc1cccc2c([N+](=O)[O-])cccc12 | inconclusive: -57.5% |
| CSc1nnc(CNC(=O)c2ccccc2)n1-c1cccc(C)c1 | inconclusive: -53% |
| Fc1cccc(Cl)c1/C=N/Nc1c(Cl)cncc1Cl | inconclusive: -49% |
| C=CCSCC1Nc2cc(Cl)c(S(N)(=O)=O)cc2S(=O)(=O)N1 (stereo not given) | inconclusive: -44.2% |
| CCOc1ccc(N=C2Sc3nc4ccc(C)cc4cc3CN2CCOC)cc1 | inconclusive: -52% |
| N#CCCN(C(=O)COc1ccc(C#N)cc1)c1ccc(F)cc1 | inconclusive: -49% |
| CC(C)C1N(S(=O)(=O)c2ccccc2)CCN1S(=O)(=O)c1ccccc1 | active: -107% |
| O=C(O)c1sccc1S(=O)(=O)N1CCOCC1 | inactive: -0.192% |
| CC1CN(C(=O)c2cccc(COc3ccc(Br)cc3)c2)CC(C)O1 (stereo not given) | active: -77.7% |
| COc1cc(O)c2c(c1)COC2=O | inconclusive: -52.3% |
| CCCN(CC(=O)Nc1ccc(F)c(F)c1F)CC(=O)Nc1c(Cl)cccc1Cl | inconclusive: -54.6% |
| COC(=O)NC(NC(=S)Nc1ccc([N+](=O)[O-])cc1)C(Cl)(Cl)Cl (stereo not given) | inconclusive: -41.5% |

| SMILES | activity change, negative = inhibition |
| --- | --- |
| Cc1cccc(N2CC(c3nc4ccc(C)cc4[nH]3)CC2=O)c1 (stereo not given) | inactive: -6.92% |
| Cc1nc2ccccc2cc1C(=O)NCc1ccc(F)cc1 | inconclusive: -48.8% |
| CC1CCCN(Cc2c(O)ccc3c(=O)c(-c4ccc(Cl)cc4)coc23)C1 (stereo not given) | inconclusive: -43.7% |
| CC1Cc2nc(SCC(=O)Nc3ccc(F)cc3F)n(C)c(=O)c2S1 (stereo not given) | inconclusive: -40.5% |
| COc1ccc(Nc2nc(-c3ccccc3)nc3ccccc23)c(OC)c1 | inconclusive: -40.7% |
| O=C(CCN1C(=O)/C(=C/c2ccccc2)SC1=S)N1CCCCCC1 | active: -97.1% |
| C[C@@H]1CCCCO[C@@H](CN(C)Cc2ccc3c(c2)OCO3)[C@@H](C)CN([C@H](C)CO)C(=O)c2cc(NS(=O)(=O)c3ccccc3)ccc2O1 | active: -68.7% |
| O=C(Nc1ccc2oc(=O)ccc2c1)c1cc2ccccc2o1 | inactive: 64.9% |
| COc1ccc(-n2ncc(S(=O)(=O)c3ccccc3)c2-c2ccc(Cl)cc2)cc1 | inconclusive: -47.3% |
| COc1ccc(S(=O)(=O)CCC(=O)NCCc2ccc(S(N)(=O)=O)cc2)cc1 | inconclusive: -48.5% |
| COc1ccc(N2CCN(c3ccc(N4C(=O)CC(C)C4=O)cc3[N+](=O)[O-])CC2)cc1 (stereo not given) | active: -89.9% |
| CCOCCCNC(=O)C1(O)c2cc(Br)ccc2NC(=O)N1c1ccc(C)c(C)c1 (stereo not given) | inconclusive: -50.8% |
| OCCC1CN(Cc2cnn(-c3ccc(F)cc3)c2)CCN1Cc1ccsc1 (stereo not given) | inconclusive: -51.8% |
| COc1ccc(Nc2c3c(nc4ccccc24)CCC3)c(OC)c1 | inconclusive: -51.2% |
| COc1ccc(NC(=O)C2CCCN(C(=O)c3cnn(-c4ccccc4)c3-n3cccc3)C2)cc1 (stereo not given) | inconclusive: -43.3% |
| Cc1cc(/C=C(\C#N)C(=O)NC2CCCCCC2)c(C)n1C | inactive: -35.8% |
| COc1ccc(/C=N/O)cc1COc1ccc(NC(C)=O)cc1 | inactive: -2.6% |
| CCN(C(C)=O)N(CC)c1nc(Cl)nc(NC(C)C)n1 | inconclusive: -41.3% |
| CCN1CCN(CCCNC(=O)Cn2c(-c3cccs3)cc3ccccc32)CC1 | inconclusive: -49.8% |
